Reference: PubChem BioAssay AID652259 (Drosophila RNAi Screening Center, 2013)

Purpose: 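Identify new Wingless signalling regulators in fly cells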 (primary screen)
System: Drosophila clone 8 imaginal disc epithelial cells
Reagents: long dsRNA against Drosophila genes
Challenge: pathway stimulated by co-transfected Wingless expression plasmid
Read-out: 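Dual luciferase reads per well after Wingless plasmid stimulation: reporter firefly light and Renilla control light; activity is firefly divided by Renilla, a ratio not deposited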
Scale: firefly reporter light: higher = more Wg reporter light, before normalisation; Renilla control light: higher = more transfected or surviving cells
Hit rule: 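a knock-down is a candidate when at least two out of four statistical tests show it departing from its plate mean; one test alone signals a weak candidate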
Meaning of the calls: active = candidate regulator (raises or lowers reporter); inactive = not a candidate
In all, the deposit lists about 22,000 reagents; shown is an unselected part of those with a known target gene and a result. Over the whole deposit, 233 (1.1%) got an active call. 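Light values are raw, unnormalised plate reads; the ratio scores behind the reporter calls were not deposited.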 A plus sign joins genes that one reagent is predicted to hit. No sequences are given here. Not stated in the record: the amount of reagent, the time to read-out, the dose of the treatment.

Target gene | DRSC id | firefly reporter light, replicate 1 | firefly reporter light, replicate 2 | Renilla control light, replicate 1 | Renilla control light, replicate 2 | Call
CG33458 (GeneID 2768846) | DRSC22891 | 5.22e5 | 4.96e5 | 2.14e5 | 93806 | inactive
CG8036 (GeneID 41027) | DRSC16366 | 11687 | – | 3747 | – | inactive
CG42676 (GeneID 2768999) | DRSC08227 | 24484 | – | 3813 | – | inactive
CG42676 (GeneID 2768999) | DRSC08392 | 4554 | – | 2112 | – | inactive
CG12426 (GeneID 43342) | DRSC14516 | 7064 | – | 2955 | – | inactive
rump (GeneID 41138) | DRSC16480 | 6579 | – | 1633 | – | inactive
CG2790 (GeneID 37992) | DRSC04045 | 12736 | – | 3856 | – | inactive
Spindly (GeneID 33578) | DRSC00430 | 5239 | 7082 | 1032 | 1013 | inactive
CG13589 (GeneID 37906) | DRSC04225 | 3269 | 6948 | 1281 | 3260 | inactive
CG1314 (GeneID 33066) | DRSC20495 | 2765 | 7872 | 1152 | 2976 | inactive
CG15890 (GeneID 32401) | DRSC19737 | 13248 | – | 6211 | – | inactive
Tsp74F (GeneID 39995) | DRSC10508 | 8843 | – | 3760 | – | inactive
TAF1B (GeneID 41242) | DRSC16001 | 5244 | – | 2202 | – | inactive
CG32564 (GeneID 326222) | DRSC19933 | 19776 | – | 9336 | – | inactive
alpha-Man-IIb (GeneID 41913) | DRSC16898 | 2317 | 4808 | 1104 | 1065 | inactive
RpL41 (GeneID 251466) | DRSC22958 | 5.89e5 | 6.56e5 | 2.76e5 | 80877 | inactive
CG13738 (GeneID 39541) | DRSC10065 | 5877 | – | 1028 | – | inactive
Act57B (GeneID 37368) | DRSC04042 | 9096 | – | 2836 | – | inactive
TTLL5 (GeneID 43015) | DRSC14181 | 2905 | 4394 | 1488 | 1448 | inactive
Grl62a (GeneID 7354373) | DRSC07963 | 3216 | – | 1600 | – | inactive
CG6978 (GeneID 31413) | DRSC18409 | 22700 | – | 11431 | – | inactive
Nthl1 (GeneID 35365) | DRSC03183 | 2384 | 6066 | 920 | 2439 | inactive
Naa35 (GeneID 37866) | DRSC04447 | 6275 | – | 2827 | – | inactive
CG9628 (GeneID 39593) | DRSC11082 | 7669 | – | 2764 | – | inactive
Jhbp13 (GeneID 34729) | DRSC02913 | 4448 | 9440 | 1319 | 3137 | inactive
Dys (GeneID 42327) | DRSC13360 | 4612 | – | 2872 | – | inactive
Dys (GeneID 42327) | DRSC13364 | 4761 | – | 1814 | – | inactive
Dys (GeneID 42327) | DRSC15260 | 15236 | – | 4428 | – | inactive
Dys (GeneID 42327) | DRSC16218 | 18000 | – | 2989 | – | inactive
Dys (GeneID 42327) | DRSC16219 | 14375 | – | 3291 | – | inactive
Dys (GeneID 42327) | DRSC16220 | 15365 | – | 3737 | – | inactive
Dys (GeneID 42327) | DRSC16935 | 13842 | – | 2838 | – | inactive
CG14186 (GeneID 40196) | DRSC10185 | 3136 | – | 1275 | – | inactive
CG7798 (GeneID 36798) | DRSC07047 | 6585 | – | 2132 | – | inactive

Targets above whose gene name begins with T or t:
Target gene | DRSC id | firefly reporter light, replicate 1 | firefly reporter light, replicate 2 | Renilla control light, replicate 1 | Renilla control light, replicate 2 | Call
Tsp74F (GeneID 39995) | DRSC10508 | 8843 | – | 3760 | – | inactive
TAF1B (GeneID 41242) | DRSC16001 | 5244 | – | 2202 | – | inactive
TTLL5 (GeneID 43015) | DRSC14181 | 2905 | 4394 | 1488 | 1448 | inactive

The listing continues:
Target gene | DRSC id | firefly reporter light, replicate 1 | firefly reporter light, replicate 2 | Renilla control light, replicate 1 | Renilla control light, replicate 2 | Call
CG15814 (GeneID 32765) | DRSC19730 | 2024 | 9008 | 961 | 3367 | inactive
CR33013 (GeneID 14462581) | DRSC06286 | 7381 | – | 2684 | – | inactive
Mur89F (GeneID 42080) | DRSC15544 | 15257 | – | 3570 | – | inactive
Listericin (GeneID 36183) | DRSC07334 | 9616 | – | 3648 | – | inactive
CG43397 + CG12902 | DRSC06217 | 3184 | 8923 | 710 | 3430 | inactive
CG4586 (GeneID 31641) | DRSC18373 | 3408 | 8611 | 1106 | 2470 | inactive
Klp59D (GeneID 37674) | DRSC04118 | 4256 | 9977 | 771 | 3594 | inactive
Cdk8 (GeneID 39157) | DRSC11113 | 3462 | – | 1504 | – | inactive
CG5888 (GeneID 34980) | DRSC01929 | 3786 | – | 1431 | – | inactive
SF1 (GeneID 43912) | DRSC16844 | 11333 | – | 3488 | – | inactive
CG11454 (GeneID 33175) | DRSC00310 | 5540 | – | 2656 | – | inactive
NimB5 (GeneID 34815) | DRSC01885 | 2352 | 7088 | 1281 | 3330 | inactive
daed (GeneID 33398) | DRSC00299 | 10144 | – | 3133 | – | inactive
CG12691 (GeneID 31370) | DRSC17880 | 19872 | – | 7507 | – | inactive
Ser12 (GeneID 33406) | DRSC00786 | 2012 | 5445 | 881 | 2130 | inactive
hll (GeneID 34822) | DRSC01944 | 4032 | – | 979 | – | inactive
CG43111 (GeneID 12798347) | DRSC05796 | 13735 | – | 9431 | – | inactive
CG14743 (GeneID 35860) | DRSC06479 | 1857 | 5153 | 778 | 2487 | inactive
AGBE (GeneID 326264) | DRSC06861 | 8938 | – | 2421 | – | inactive
dysf (GeneID 43174) | DRSC14529 | 22406 | – | 17569 | – | inactive
dysf (GeneID 43174) | DRSC14895 | 22553 | – | 14917 | – | inactive
dysf (GeneID 43174) | DRSC14896 | 19872 | – | 17649 | – | inactive
dysf (GeneID 43174) | DRSC14897 | 16516 | – | 4760 | – | inactive
CG11034 (GeneID 33810) | DRSC02121 | 1936 | 6341 | 996 | 2763 | inactive
CG11034 (GeneID 33810) | DRSC02122 | 2536 | 6027 | 1072 | 2304 | inactive
Usp5 (GeneID 38375) | DRSC08244 | 8246 | – | 4112 | – | inactive
CG4537 (GeneID 34306) | DRSC02756 | 3411 | 7803 | 1107 | 3456 | inactive
CG43316 (GeneID 36326) | DRSC06297 | 5880 | – | 2409 | – | inactive
CG18404 (GeneID 43603) | DRSC15323 | 8434 | – | 3365 | – | inactive
CG7611 (GeneID 40386) | DRSC11840 | 8981 | 8.06e5 | 4620 | 3.93e5 | inactive
CG31689 (GeneID 326154) | DRSC00734 | 3225 | 7440 | 954 | 2201 | inactive
Ubr3 (GeneID 31713) | DRSC17987 | 2300 | 7507 | 1029 | 2820 | inactive
Ubr3 (GeneID 31713) | DRSC17997 | 16467 | – | 7083 | – | inactive
CG8508 (GeneID 41620) | DRSC16436 | 9082 | – | 3513 | – | inactive
Ndc80 (GeneID 32316) | DRSC20221 | 3815 | 8944 | 1259 | 2544 | inactive
Ndc80 (GeneID 32316) | DRSC21726 | 5.14e5 | 5.86e5 | 1.65e5 | 1.70e5 | inactive
Piezo (GeneID 34112) | DRSC03092 | 12352 | – | 6173 | – | inactive
Piezo (GeneID 34112) | DRSC03391 | 2141 | 5763 | 809 | 2740 | inactive
Nlg1 (GeneID 40913) | DRSC12485 | 2681 | – | 1424 | – | inactive
Nlg1 (GeneID 40913) | DRSC12532 | 6388 | – | 1853 | – | inactive
Nlg1 (GeneID 40913) | DRSC12533 | 13457 | – | 3138 | – | inactive
Nlg1 (GeneID 40913) | DRSC12539 | 14021 | – | 2630 | – | inactive
